Assay results from the supplement of paper PMC4371806.
Over roughly 1,600 compounds, “plate-normalized OD600 growth (mean of duplicates)” has its median near 0.31; the lowest 2% begin near 0.23. The list shows a part of the results.

Tested on: Escherichia coli BW25113
Assay: plate-normalized OD600 growth (mean of duplicates) (OD600 (normalized)); higher = more growth (less inhibition)
Details: 10 µM
Protocol: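 E. coli BW25113 in LB (100 µl, 96-well, no shaking) was exposed to 10 µM of each compound (here the ChemBridge subset of a ~30,000-member library) and grown at 37°C for 24 h or 15°C for 48 h, in duplicate. Growth was read as OD600 and the duplicate ODs were normalized across screening plates to correct plate-to-plate variation.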

| SMILES | plate-normalized OD600 growth (temperature: 15°C, 48 h) | plate-normalized OD600 growth (temperature: 37°C, 24 h) |
| --- | --- | --- |
| O=C(O)C12CC3CC(CC(O)(C3)C1)C2 | 0.244 | 0.645 |
| COc1cc(CN2CC(C)CC(C)C2)cc(I)c1O (stereo not given) | 0.252 | 0.644 |
| COc1ccc(NCc2ccc(Cl)cc2Cl)cc1OC | 0.22 | 0.625 |
| CCC1=C(O)c2ccccc2C(=O)C1=O | 0.25 | 0.6 |
| C=CCSc1nc2c(cc1C#N)CCCC2 | 0.254 | 0.623 |
| O=C(Nc1cc(F)c(F)cc1Cl)N1CCN(c2ccc([N+](=O)[O-])cc2)CC1 | 0.232 | 0.615 |
| COc1ccccc1N1C(=O)CC(N2CCOCC2)C1=O (stereo not given) | 0.25 | 0.604 |
| CC(=O)Nc1ccc(C(=O)Nc2ccc(I)cc2)cc1 | 0.262 | 0.635 |
| Cc1ccc(C(=O)Nc2cccc(O)c2)cc1 | 0.237 | 0.606 |
| O=C(O)c1ccc(NS(=O)(=O)c2cccc(C(=O)Nc3ccccc3)c2)cc1 | 0.245 | 0.603 |
| O=C(Nc1cccc(F)c1)c1cc(F)c(F)cc1Cl | 0.26 | 0.621 |
| O=C(O)CCCNC(=O)c1ccncc1 | 0.254 | 0.622 |
| CCCCOC(=O)Nc1ccc(C)cc1C | 0.24 | 0.607 |
| N#CC(=Cc1cc(Cl)ccc1O)c1nc2ccccc2[nH]1 | 0.262 | 0.643 |
| CCOc1ccccc1NC(=O)c1ccc(C)cc1 | 0.249 | 0.601 |
| O=C(Nc1ccc2c(c1)oc1ccccc12)c1ccncc1 | 0.256 | 0.623 |
| N#CCCN(CCN1CCCC1)S(=O)(=O)c1cccc2nsnc12 | 0.253 | 0.624 |
| CCN(CC)CCN(C)C1CCN(C)CC1 | 0.256 | 0.612 |

Two entries from above in another layout:
SMILES	plate-normalized OD600 growth (temperature: 15°C, 48 h)	plate-normalized OD600 growth (temperature: 37°C, 24 h)
O=C(O)c1ccc(NS(=O)(=O)c2cccc(C(=O)Nc3ccccc3)c2)cc1	0.245	0.603
N#CC(=Cc1cc(Cl)ccc1O)c1nc2ccccc2[nH]1	0.262	0.643

The list continues.

| SMILES | plate-normalized OD600 growth (temperature: 15°C, 48 h) | plate-normalized OD600 growth (temperature: 37°C, 24 h) |
| --- | --- | --- |
| COc1ccc2nc(C)c3c(c2c1)OC(C)C3 (stereo not given) | 0.244 | 0.623 |
| CN(C)CCN(C)Cc1cccc(Cl)c1Cl | 0.235 | 0.632 |
| O=C(CC(=O)c1ccc([N+](=O)[O-])cc1)Nc1ccccc1Cl | 0.252 | 0.606 |
| COc1ccc(C(=O)CCN(C)C)cc1 | 0.25 | 0.615 |
| Cc1ccc(OCCCCc2c(C)n[nH]c2C)cc1 | 0.276 | 0.62 |
| O=C(NCCc1ccccc1)c1cccc(F)c1 | 0.251 | 0.61 |
| C=CCN(C(=O)c1ccccc1)c1ccc(OC)cc1 | 0.267 | 0.629 |
| COc1ccccc1N1C(=O)CC(N2CCN(Cc3ccccc3)CC2)C1=O (stereo not given) | 0.251 | 0.609 |
| CC(=O)NS(=O)(=O)c1ccc(NS(=O)(=O)c2ccccc2[N+](=O)[O-])cc1 | 0.265 | 0.624 |
| COc1ccc(CNC2C3CC4CC(C3)CC2C4)c(OC)c1 (stereo not given) | 0.224 | 0.615 |
| Cc1cc(C)c(S(=O)(=O)Nc2cc(C)on2)c(C)c1 | 0.243 | 0.612 |
| CCCN(CCC)S(=O)(=O)c1ccc(C)c([N+](=O)[O-])c1 | 0.27 | 0.638 |
| CN(C)/C=C/c1c(C=O)c2cc([N+](=O)[O-])ccc2n1C | 0.238 | 0.596 |
| CCN(C(=O)c1cccc(Br)c1)c1ccccc1 | 0.242 | 0.615 |
| CC(=O)Nc1ccc(C(=O)Nc2ccc(F)cc2)cc1 | 0.256 | 0.626 |
| Fc1ccccc1OCCSc1nc2ccccc2o1 | 0.249 | 0.6 |
| Cc1cc(=O)n2cccc(O)c2n1 | 0.248 | 0.63 |
